Reference: publication PMC10203745
No constants are given. Whether binding was seen depends on the method and setting. Binding seen in cells or lysates may run through a third protein. Here binding means that the protein was enriched with, or labelled near, the bait; the list need not be complete.

By UniProt entry, the sequences of proteins in these tests, tags left out.
UniProt Q60974: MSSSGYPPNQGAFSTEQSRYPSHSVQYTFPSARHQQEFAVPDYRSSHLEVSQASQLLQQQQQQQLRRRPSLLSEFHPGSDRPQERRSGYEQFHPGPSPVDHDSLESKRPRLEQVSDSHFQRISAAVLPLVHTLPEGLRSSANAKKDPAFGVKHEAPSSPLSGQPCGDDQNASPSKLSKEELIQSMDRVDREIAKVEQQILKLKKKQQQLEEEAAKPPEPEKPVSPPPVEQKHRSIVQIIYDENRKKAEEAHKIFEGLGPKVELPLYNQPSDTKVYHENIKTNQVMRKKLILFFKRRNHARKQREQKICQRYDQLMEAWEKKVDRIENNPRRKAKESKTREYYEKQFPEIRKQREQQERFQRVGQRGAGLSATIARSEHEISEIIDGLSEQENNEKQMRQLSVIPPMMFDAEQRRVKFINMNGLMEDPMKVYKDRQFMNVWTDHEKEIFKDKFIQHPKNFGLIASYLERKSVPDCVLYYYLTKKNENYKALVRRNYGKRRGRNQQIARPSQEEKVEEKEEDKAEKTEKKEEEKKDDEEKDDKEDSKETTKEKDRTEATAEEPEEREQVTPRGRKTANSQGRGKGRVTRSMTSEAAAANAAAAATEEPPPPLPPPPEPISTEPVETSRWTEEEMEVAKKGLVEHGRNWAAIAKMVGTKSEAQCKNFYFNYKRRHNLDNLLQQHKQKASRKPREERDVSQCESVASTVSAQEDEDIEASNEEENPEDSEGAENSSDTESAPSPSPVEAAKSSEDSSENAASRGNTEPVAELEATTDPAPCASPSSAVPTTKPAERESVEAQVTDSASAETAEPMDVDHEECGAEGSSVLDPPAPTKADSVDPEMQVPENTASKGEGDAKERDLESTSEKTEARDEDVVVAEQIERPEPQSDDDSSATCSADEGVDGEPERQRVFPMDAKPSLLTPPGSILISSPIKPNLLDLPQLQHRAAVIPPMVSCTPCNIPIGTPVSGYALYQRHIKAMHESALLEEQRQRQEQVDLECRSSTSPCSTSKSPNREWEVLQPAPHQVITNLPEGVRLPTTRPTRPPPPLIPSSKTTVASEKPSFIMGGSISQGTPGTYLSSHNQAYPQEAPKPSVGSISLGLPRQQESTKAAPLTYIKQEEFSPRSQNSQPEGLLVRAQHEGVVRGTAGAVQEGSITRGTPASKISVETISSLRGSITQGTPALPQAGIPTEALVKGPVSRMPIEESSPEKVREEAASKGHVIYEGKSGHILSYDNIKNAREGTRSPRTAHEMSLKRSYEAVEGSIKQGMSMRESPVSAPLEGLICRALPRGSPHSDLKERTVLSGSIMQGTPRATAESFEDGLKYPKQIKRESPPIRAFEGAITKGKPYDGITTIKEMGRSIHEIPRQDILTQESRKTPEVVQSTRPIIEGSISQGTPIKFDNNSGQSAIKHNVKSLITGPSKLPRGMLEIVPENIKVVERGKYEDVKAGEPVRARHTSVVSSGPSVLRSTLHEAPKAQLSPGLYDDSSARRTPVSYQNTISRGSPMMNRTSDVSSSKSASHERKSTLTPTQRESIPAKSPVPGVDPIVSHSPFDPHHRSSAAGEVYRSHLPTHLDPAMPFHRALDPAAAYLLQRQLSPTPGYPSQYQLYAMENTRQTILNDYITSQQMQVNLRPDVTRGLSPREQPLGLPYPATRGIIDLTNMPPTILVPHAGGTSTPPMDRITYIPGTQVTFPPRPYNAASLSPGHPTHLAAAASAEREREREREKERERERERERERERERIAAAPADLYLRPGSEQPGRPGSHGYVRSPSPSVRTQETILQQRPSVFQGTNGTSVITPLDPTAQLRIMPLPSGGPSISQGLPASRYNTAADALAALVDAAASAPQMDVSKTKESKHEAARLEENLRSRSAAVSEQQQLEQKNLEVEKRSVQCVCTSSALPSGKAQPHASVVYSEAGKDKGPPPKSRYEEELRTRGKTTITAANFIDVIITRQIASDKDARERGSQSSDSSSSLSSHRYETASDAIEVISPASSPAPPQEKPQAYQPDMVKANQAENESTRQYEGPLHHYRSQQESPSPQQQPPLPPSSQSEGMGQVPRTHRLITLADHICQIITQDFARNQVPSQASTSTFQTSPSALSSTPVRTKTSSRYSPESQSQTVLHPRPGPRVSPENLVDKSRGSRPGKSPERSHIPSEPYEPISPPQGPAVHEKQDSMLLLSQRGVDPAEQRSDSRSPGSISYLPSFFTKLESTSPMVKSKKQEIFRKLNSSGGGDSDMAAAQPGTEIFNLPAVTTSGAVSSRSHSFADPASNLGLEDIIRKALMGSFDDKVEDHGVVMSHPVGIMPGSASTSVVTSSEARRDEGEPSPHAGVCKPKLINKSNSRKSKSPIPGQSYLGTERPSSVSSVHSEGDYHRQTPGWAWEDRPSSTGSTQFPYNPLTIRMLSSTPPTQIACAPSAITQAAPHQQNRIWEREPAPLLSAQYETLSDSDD
UniProt Q6PHQ9: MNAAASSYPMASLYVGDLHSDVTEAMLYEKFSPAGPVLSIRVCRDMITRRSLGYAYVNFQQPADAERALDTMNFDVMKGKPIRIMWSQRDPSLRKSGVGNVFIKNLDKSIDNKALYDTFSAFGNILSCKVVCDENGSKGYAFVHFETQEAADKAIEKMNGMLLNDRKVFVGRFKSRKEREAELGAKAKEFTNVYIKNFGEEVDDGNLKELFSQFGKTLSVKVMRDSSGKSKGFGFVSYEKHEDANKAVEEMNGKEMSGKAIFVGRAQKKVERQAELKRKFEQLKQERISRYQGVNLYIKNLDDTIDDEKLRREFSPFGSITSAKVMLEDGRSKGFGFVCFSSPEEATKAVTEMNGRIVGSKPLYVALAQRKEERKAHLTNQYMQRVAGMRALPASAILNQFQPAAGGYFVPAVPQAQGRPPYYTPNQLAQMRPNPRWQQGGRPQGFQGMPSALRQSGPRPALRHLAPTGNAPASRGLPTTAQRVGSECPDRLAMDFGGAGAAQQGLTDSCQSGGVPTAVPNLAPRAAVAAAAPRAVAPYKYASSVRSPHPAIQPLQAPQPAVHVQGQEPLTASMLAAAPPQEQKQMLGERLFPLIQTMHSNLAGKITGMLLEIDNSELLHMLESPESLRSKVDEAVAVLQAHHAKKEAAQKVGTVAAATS

Target: nuclear receptor corepressor 1 (NCoR1)-FLAG, full length, expressed in MEF cells (mouse) (UniProt Q60974)
Experiment: affinity purification with mass spectrometry; MEF cells transfected with pcDNA-GFP-FLAG (control) or pCMX-NCoR1-FLAG, lysed 48 h later (25 mM Tris pH 7.9, 150 mM NaCl, 1 mM EDTA, 1% Triton X-100); NCoR1 precipitated with anti-NCoR1 antibody and Protein A/G magnetic beads overnight at 4 °C, eluted with 0.1 M glycine pH 2.2; LC-MS/MS, three independent samples

| Molecule | binding |
| --- | --- |
| poly(A)-binding protein cytoplasmic 4 (PABPC4), endogenous in MEF cells (from UniProt Q6PHQ9 1-660) | binds |
| exchange factor TBL1X (protein, UniProt Q9QXE7 1-527) MSITSDEVNFLVYRYLQESGFSHSAFTFGIESHISQSNINGTLVPPAALISILQKGLQYVEAEISINEDGTVFDGRPIESLSLIDAVMPDVVQTRQQAFREKLAQQQANAAAAAAAAAATATSTAATTPAAAAQQNPPKNGEATVNGEENGAHAINNHSKPMEIDGDVEIPPSKATVLRGHESEVFICAWNPVSDLLASGSGDSTARIWNLNENSNGGSTQLVLRHCIREGGHDVPSNKDVTSLDWNSDGTLLATGSYDGFARIWTEDGNLASTLGQHKGPIFALKWNKKGNYILSAGVDKTTIIWDAHTGEAKQQFPFHSAPALDVDWQNNTTFASCSTDMCIHVCRLGCDRPVKTFQGHTNEVNAIKWDPSGMLLASCSDDMTLKIWSMKQDACVHDLQAHSKEIYTIKWSPTGPATSNPNSNIMLASASFDSTVRLWDVERGVCIHTLTKHQEPVYSVAFSPDGKYLASGSFDKCVHIWNTQSGSLVHSYRGTGGIFEVCWNARGDKVGASASDGSVCVLDLRK | binds |
